Data published in article PMC6597583.
No constants are given. Whether binding was seen depends on the method and setting. Blank lines part the entries; values can stand above or below the substance they belong to.

Protein sequences, listed by entry. Tags and fused reporters are not part of them. Lines headed by an entry give the natural chain unless they say otherwise; changes in a name come on top. Chains listed by the source or under a name are the forms on record and can include a tag or linker.
BnCYP18-5 (A0A078IDN6, form named): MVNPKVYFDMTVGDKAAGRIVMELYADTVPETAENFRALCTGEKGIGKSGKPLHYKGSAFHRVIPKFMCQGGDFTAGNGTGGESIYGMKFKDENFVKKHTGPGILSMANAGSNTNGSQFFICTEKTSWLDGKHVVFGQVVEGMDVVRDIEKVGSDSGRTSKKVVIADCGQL
BnCYP18-4 (A0A078DMP0, form named): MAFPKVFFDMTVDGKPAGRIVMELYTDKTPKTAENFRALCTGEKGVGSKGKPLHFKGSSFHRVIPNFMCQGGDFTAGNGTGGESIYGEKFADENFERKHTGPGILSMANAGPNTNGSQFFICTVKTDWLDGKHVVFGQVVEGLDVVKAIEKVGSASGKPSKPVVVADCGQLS
BnCYP19-1 (A0A078GRH6, form named): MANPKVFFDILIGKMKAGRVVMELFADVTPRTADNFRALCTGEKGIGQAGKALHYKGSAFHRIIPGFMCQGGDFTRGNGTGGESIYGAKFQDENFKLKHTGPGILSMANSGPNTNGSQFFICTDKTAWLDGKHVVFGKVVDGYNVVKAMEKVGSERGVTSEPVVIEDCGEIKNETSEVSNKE

Tests used:
Assay in all cases: dynamic light scattering; protein solution in a quartz cuvette, 660 nm laser, scattering at 90°, CONTIN algorithm, Rh via Stokes-Einstein equation; both purified
[1] = biological target: BnCYP18-5 (Brassica napus)
[2] = biological target: BnCYP18-4 (Brassica napus)
[3] = biological target: BnCYP19-1 (Brassica napus)

binding [1]: no binding
Substance: BnCYP18-5 (from UniProt A0A078IDN6 1-171) (enzyme)

binding [2]: no binding
Substance: BnCYP18-4 (from UniProt A0A078DMP0 1-172) (enzyme)

binding [3]: no binding
Substance: BnCYP19-1 (from UniProt A0A078GRH6 1-182) (enzyme)
